The experiment deals with c-Met (human (endogenous in U87 and HUVEC)) (UniProt P08581). In words: co-IP; lysates in RIPA buffer with protease inhibitors, precleared with protein A/G agarose, anti-c-Met antibody-conjugated beads overnight at 4°C, blot for p62; U87 cells and HUVECs with or without paeoniflorin (10 μM in U87, 20 μM in HUVECs, 24 h); also U87 cells transfected with HA-Ub (WT), HA-UbK48, HA-UbK63 or HA-UbKO and treated with 20 μM paeoniflorin.

Sequences of proteins named here, by UniProt entry; tags and fusion partners are left off. Residues count along the entry.
UniProt P08581, residues 25-1390: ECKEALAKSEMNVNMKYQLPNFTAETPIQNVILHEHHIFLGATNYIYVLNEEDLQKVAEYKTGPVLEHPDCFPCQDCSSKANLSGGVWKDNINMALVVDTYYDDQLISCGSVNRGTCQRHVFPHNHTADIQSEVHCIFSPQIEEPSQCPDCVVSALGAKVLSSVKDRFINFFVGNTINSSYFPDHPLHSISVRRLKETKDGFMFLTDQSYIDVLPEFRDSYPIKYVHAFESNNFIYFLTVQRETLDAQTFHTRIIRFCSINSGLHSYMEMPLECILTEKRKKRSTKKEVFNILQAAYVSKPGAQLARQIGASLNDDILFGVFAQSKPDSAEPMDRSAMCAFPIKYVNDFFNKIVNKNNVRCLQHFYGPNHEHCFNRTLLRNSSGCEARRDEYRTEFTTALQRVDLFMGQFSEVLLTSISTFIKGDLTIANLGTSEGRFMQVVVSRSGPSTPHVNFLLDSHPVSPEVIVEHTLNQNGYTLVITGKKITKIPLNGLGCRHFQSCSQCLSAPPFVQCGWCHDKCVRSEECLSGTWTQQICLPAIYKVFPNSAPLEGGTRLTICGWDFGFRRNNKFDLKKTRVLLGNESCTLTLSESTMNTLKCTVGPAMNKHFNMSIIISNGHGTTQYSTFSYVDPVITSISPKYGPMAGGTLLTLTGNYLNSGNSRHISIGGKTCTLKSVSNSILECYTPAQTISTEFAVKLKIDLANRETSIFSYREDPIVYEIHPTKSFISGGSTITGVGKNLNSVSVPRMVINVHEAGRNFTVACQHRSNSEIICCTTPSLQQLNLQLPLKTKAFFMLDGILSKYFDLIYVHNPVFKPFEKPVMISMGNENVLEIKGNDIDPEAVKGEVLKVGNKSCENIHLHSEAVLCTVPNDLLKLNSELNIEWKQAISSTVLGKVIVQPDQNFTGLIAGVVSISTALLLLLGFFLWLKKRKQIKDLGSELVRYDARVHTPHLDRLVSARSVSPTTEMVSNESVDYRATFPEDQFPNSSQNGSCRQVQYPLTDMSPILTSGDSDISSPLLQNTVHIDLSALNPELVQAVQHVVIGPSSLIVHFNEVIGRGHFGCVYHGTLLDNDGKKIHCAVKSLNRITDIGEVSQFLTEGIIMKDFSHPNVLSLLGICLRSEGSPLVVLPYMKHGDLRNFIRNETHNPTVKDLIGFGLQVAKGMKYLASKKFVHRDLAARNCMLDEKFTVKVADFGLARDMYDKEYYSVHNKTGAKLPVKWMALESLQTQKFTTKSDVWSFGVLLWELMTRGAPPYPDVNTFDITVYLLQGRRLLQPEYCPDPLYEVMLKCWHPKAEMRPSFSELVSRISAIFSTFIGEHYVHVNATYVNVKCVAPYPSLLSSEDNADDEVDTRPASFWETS

These are yes or no findings as the source states them, for the method shown. In cells and extracts the contact can be indirect. Some binding calls cover weakened binding; strength is not graded here.

p62 (from UniProt Q13501 1-440): the binding result is recorded as “binds”.

The values above are taken from article PMC9360619.
